The source of these data is PubChem BioAssay AID248 (DTP/NCI, 2004).

The list shows only some results of the screen, not a fair sample: it gathers tests that were run many times, whatever their T/C, doses with no T/C, and many T/C values between a quarter and a half above the control. Other doses and runs of a compound stand elsewhere. T/C gives the treated animals as a percentage of the vehicle group. Some entries give survivors of the animals treated and no T/C: the source holds a T/C of zero for them, seemingly a mark for toxic or unscored doses. Some survivor counts are full or nearly so, which does not show that the dose was tolerated: survival well below the control is almost never listed, so the zero probably covers shortened survival too. Survivors were counted at the toxicity check, usually on the fifth day, unless a day is given; later deaths do not show. Schedule codes are those of the source, read here as Q, the interval in days (D) or hours (H), X, the number of doses. Some entries were tested several times; the values are given in rising order. Some schedule codes hold Z or #, which are not explained here. Where survival is the endpoint, this PubChem deposit counts one and a half times the control or more as active, and values a quarter to a half above the control carry no call in these data; other NCI protocols may use other cut-offs.

The experiment concerns L1210 leukemia ip in BDF1 mice, survival T/C. Nature of the experiment: NCI In Vivo Anticancer Drug Screen. Data for tumor model L1210 Leukemia (intraperitoneal) in B6D2F1 (BDF1) mice. The note with it: T/C endpoint: mean survival time, higher T/C = longer survival.
[1] abbreviates: dose: 200.0 mg/kg/injection, schedule: Q04DX002 (ip), vehicle: saline with Tween-80.
The mark [2] stands for this setting: dose: 150.0 mg/kg/injection, schedule: Q01DX001 (ip), vehicle: saline.
[3] abbreviates: dose: 400.0 mg/kg/injection, schedule: Q01DX001 (ip), vehicle: other.
The mark [4] stands for this setting: dose: 100.0 mg/kg/injection, schedule: Q01DX001 (ip), vehicle: saline.
[5] abbreviates: dose: 200.0 mg/kg/injection, schedule: Q01DX001 (ip), vehicle: saline.
Where [6] appears, read: dose: 400.0 mg/kg/injection, schedule: Q01DX001 (ip), vehicle: saline.
Setting [7] is: dose: 50.0 mg/kg/injection, schedule: Q01DX009 (ip), vehicle: Klucel (hydroxypropylcellulose) (HPC).
[8] abbreviates: dose: 100.0 mg/kg/injection, schedule: Q01DX009 (ip), vehicle: Klucel (hydroxypropylcellulose) (HPC).
Setting [9] is: dose: 200.0 mg/kg/injection, schedule: Q01DX009 (ip), vehicle: Klucel (hydroxypropylcellulose) (HPC).
The mark [10] stands for this setting: dose: 400.0 mg/kg/injection, schedule: Q01DX009 (ip), vehicle: Klucel (hydroxypropylcellulose) (HPC).
The mark [11] stands for this setting: dose: 100.0 mg/kg/injection, schedule: Q01DX009 (ip), vehicle: saline with Tween-80.
[12] abbreviates: dose: 400.0 mg/kg/injection, schedule: Q01DX009 (ip), vehicle: saline with Tween-80.
[13] abbreviates: dose: 200.0 mg/kg/injection, schedule: Q01DX009 (ip), vehicle: saline with Tween-80.

Regarding `Cc1ccccc1C(=O)C(C#N)c1ccccc1` (centres undefined), the survivor count runs as follows: (dose: 100.0 mg/kg/injection, schedule: Q04DX003 (ip), vehicle: saline with Tween-80) 6 of 6; (dose: 200.0 mg/kg/injection, schedule: Q01DX001 (ip), vehicle: saline with Tween-80) 3 of 6; under setting [1], 0 of 3 and 3 of 6; (dose: 400.0 mg/kg/injection, schedule: Q04DX002 (ip), vehicle: saline with Tween-80) 0 of 3 and 0 of 6.
For `CC(N)Cc1cn(C)c2ccccc12` (centres undefined), the survivor count was 0 of 6 (dose: 200.0 mg/kg/injection, schedule: Q01DX009 (ip), vehicle: saline); 3 of 4 (dose: 200.0 mg/kg/injection, schedule: Q04DX003 (ip), vehicle: saline); 0 of 6 (dose: 400.0 mg/kg/injection, schedule: Q01DX009 (ip), vehicle: saline); 0 of 4 (dose: 400.0 mg/kg/injection, schedule: Q04DX003 (ip), vehicle: saline).
Consider `C1=CN2CCCN3C=CC=c4ccc(c2c43)=C1`, for which the survivor count is, setting by setting: (dose: 30.0 mg/kg/injection, schedule: Q01DX009 (ip), vehicle: saline) 3 of 6; (dose: 75.0 mg/kg/injection, schedule: Q01DX001 (ip), vehicle: saline) 0 of 6; under setting [2], 0 of 6; (dose: 300.0 mg/kg/injection, schedule: Q01DX001 (ip), vehicle: saline) 0 of 6.
As for `CN(C)C(=O)C(c1ccccc1)[P+](C)(c1ccccc1)c1ccccc1` (centres undefined), the survivor count reads like this: (dose: 150.0 mg/kg/injection, schedule: Q01DX001 (ip), vehicle: other) 3 of 6; (dose: 300.0 mg/kg/injection, schedule: Q01DX001 (ip), vehicle: other) 2 of 6.
Regarding `c1ccc(C2O[O][Sn]([c]3ccccc3)([c]3ccccc3)[O]2)cc1` (centres undefined), the survivor count is, setting by setting: (dose: 200.0 mg/kg/injection, schedule: Q04DX002 (ip), vehicle: gum acacia) 3 of 3; (dose: 400.0 mg/kg/injection, schedule: Q04DX002 (ip), vehicle: gum acacia) 2 of 3.
For the compound `C[Si](C)(CCN1CC1)N1CC1`, the survivor count is 0 of 4 (dose: 100.0 mg/kg/injection, schedule: Q01DX001 (ip), vehicle: carboxymethylcellulose (CMC)); 0 of 4 (dose: 200.0 mg/kg/injection, schedule: Q01DX001 (ip), vehicle: carboxymethylcellulose (CMC)); 0 of 4 (dose: 400.0 mg/kg/injection, schedule: Q01DX001 (ip), vehicle: carboxymethylcellulose (CMC)).
Regarding `OC1C(OCc2ccccc2)OC(COCc2ccccc2)C(OC2OC(COCc3ccccc3)C(OCc3ccccc3)C(OCc3ccccc3)C2OCc2ccccc2)C1OCc1ccccc1` (centres undefined), the survivor count is recorded as 6 of 6 (dose: 100.0 mg/kg/injection, schedule: Q01DX001 (ip), vehicle: other); 6 of 6 (dose: 100.0 mg/kg/injection, schedule: Q01DX009 (ip), vehicle: alcohol); 6 of 6 (dose: 200.0 mg/kg/injection, schedule: Q01DX001 (ip), vehicle: other); 4 of 6 under setting [3].
With `CCC[CH2][Sn]1([CH2]CCC)[O]C(=O)C2C(C(=O)[O]1)C1(Cl)C(Cl)=C(Cl)C2(Cl)C1(Cl)Cl` (centres undefined), the T/C under setting [4] was 125 % of control. For the same compound, the survivor count by setting is: under setting [2], 1 of 6; under setting [5], 2 of 4; under setting [6], 0 of 4.
Take `C[N+](C)(C)Cc1ccccc1C[N+](C)(C)C`: the survivor count under setting [6] was 0 of 4.
`Cc1ccc2nc(C#N)c(C#N)nc2c1`: the survivor count reads like this: under setting [7], 2 of 6; under setting [8], 0 of 6 and 1 of 6; under setting [9], 0 of 6; under setting [10], 0 of 6.
With `CCCC1(c2ccccc2)C(C#N)C(=O)NC(=O)C1C#N` (centres undefined), the survivor count under setting [6] is on record as 0 of 4.
With `O=C(O)c1c(O)c(-c2ccccc2)nc2ccccc12`, the survivor count (dose: 400.0 mg/kg/injection, schedule: Q04DX003 (ip), vehicle: Klucel (hydroxypropylcellulose) (HPC)) is given as 2 of 6.
Take `C[N+]1(CCCNC2=CC(=O)C(NCCC[N+]3(C)CCCCC3)=CC2=O)CCCCC1`: the survivor count reads like this: (dose: 1.0 mg/kg/injection, schedule: Q01DX001 (ip), vehicle: saline) 2 of 6; (dose: 2.0 mg/kg/injection, schedule: Q01DX001 (ip), vehicle: saline) 0 of 6; (dose: 4.0 mg/kg/injection, schedule: Q01DX001 (ip), vehicle: saline) 1 of 6; (dose: 5.0 mg/kg/injection, schedule: Q01DX001 (ip), vehicle: saline) 0 of 6; (dose: 8.0 mg/kg/injection, schedule: Q01DX001 (ip), vehicle: saline) 0 of 6; (dose: 10.0 mg/kg/injection, schedule: Q01DX001 (ip), vehicle: saline) 0 of 6. In addition, the survivor count is, setting by setting: (dose: 20.0 mg/kg/injection, schedule: Q01DX001 (ip), vehicle: saline) 0 of 6; (dose: 40.0 mg/kg/injection, schedule: Q01DX001 (ip), vehicle: saline) 0 of 6; (dose: 80.0 mg/kg/injection, schedule: Q01DX001 (ip), vehicle: saline) 0 of 6; under setting [4], 0 of 6; under setting [5], 0 of 6; under setting [6], 0 of 6.
Take `COc1ccc(C(O)(c2ccccc2)C(OC(=O)CCl)c2ccccc2)cc1` (centres undefined): the survivor count reads like this: under setting [11], 6 of 6; under setting [12], 6 of 6.
Consider `CC1CCC(Oc2nc3c(c(=O)n(C)c(=O)n3C)n2C)CC1` (centres undefined), for which the survivor count under setting [3] is 2 of 4.
With `CCCC(C)C(=NC)Nc1ccc(Cl)c(Cl)c1` (centres undefined), the survivor count (dose: 25.0 mg/kg/injection, schedule: Q01DX Z (ip), vehicle: methylcellulose (MC)) is 2 of 6.
For the compound `N#CC12C(=O)C3C4C=CC(C4)C3C(=O)C1(C#N)C1C=CC2C1` (centres undefined), for the setting “dose: 400.0 mg/kg/injection, schedule: Q04DX003 (ip), vehicle: saline with Tween-80”, the survivor count is listed as 0 of 3.
Take `Cc1cccc(NC(=S)NC(=O)CCc2ccccc2)c1C`: the T/C was 100 and 103 % of control under setting [11]; 90 % of control under setting [13]. Moreover, the survivor count runs as follows: under setting [11], 3 of 3; under setting [13], 3 of 3 and 6 of 6; under setting [1], 3 of 3; under setting [12], 0 of 3 and 1 of 6.
On to `Cc1c2cnccc2c(C)c2c1c1ccccc1n2CC1CO1` (centres undefined), for which the T/C is, setting by setting: (dose: 9.37 mg/kg/injection, schedule: Q01DX009 (ip), vehicle: Klucel (hydroxypropylcellulose) (HPC)) 126 % of control; (dose: 12.5 mg/kg/injection, schedule: Q01DX009 (ip), vehicle: Klucel (hydroxypropylcellulose) (HPC)) 130 % of control; (dose: 12.5 mg/kg/injection, schedule: Q04DX003 (ip), vehicle: saline) 128 % of control; (dose: 25.0 mg/kg/injection, schedule: Q01DX009 (ip), vehicle: saline with Tween-80) 128 % of control; (dose: 50.0 mg/kg/injection, schedule: Q01DX009 (ip), vehicle: saline with Tween-80) 147 % of control; (dose: 50.0 mg/kg/injection, schedule: Q04DX003 (ip), vehicle: saline) 126 % of control. Moreover, the T/C (dose: 100.0 mg/kg/injection, schedule: Q04DX003 (ip), vehicle: saline) was 138 % of control. For the same compound, the survivor count reads like this: under setting [7], 6 of 6; under setting [8], 5 of 6; (dose: 150.0 mg/kg/injection, schedule: Q04DX003 (ip), vehicle: saline) 6 of 6; under setting [9], 5 of 6; under setting [10], 3 of 6.
